# From the supplement of paper PMC12067093, “Discovery and optimisation of a covalent ligand for TRIM25 and its application to targeted protein ubiquitination” (Chemical Science, 2025)
# Amino acid sequences for entries named in this document (tags omitted). A change or cut given only in a name is not applied to a line headed by its entry.
# UniProt P78527, whole entry, looked up: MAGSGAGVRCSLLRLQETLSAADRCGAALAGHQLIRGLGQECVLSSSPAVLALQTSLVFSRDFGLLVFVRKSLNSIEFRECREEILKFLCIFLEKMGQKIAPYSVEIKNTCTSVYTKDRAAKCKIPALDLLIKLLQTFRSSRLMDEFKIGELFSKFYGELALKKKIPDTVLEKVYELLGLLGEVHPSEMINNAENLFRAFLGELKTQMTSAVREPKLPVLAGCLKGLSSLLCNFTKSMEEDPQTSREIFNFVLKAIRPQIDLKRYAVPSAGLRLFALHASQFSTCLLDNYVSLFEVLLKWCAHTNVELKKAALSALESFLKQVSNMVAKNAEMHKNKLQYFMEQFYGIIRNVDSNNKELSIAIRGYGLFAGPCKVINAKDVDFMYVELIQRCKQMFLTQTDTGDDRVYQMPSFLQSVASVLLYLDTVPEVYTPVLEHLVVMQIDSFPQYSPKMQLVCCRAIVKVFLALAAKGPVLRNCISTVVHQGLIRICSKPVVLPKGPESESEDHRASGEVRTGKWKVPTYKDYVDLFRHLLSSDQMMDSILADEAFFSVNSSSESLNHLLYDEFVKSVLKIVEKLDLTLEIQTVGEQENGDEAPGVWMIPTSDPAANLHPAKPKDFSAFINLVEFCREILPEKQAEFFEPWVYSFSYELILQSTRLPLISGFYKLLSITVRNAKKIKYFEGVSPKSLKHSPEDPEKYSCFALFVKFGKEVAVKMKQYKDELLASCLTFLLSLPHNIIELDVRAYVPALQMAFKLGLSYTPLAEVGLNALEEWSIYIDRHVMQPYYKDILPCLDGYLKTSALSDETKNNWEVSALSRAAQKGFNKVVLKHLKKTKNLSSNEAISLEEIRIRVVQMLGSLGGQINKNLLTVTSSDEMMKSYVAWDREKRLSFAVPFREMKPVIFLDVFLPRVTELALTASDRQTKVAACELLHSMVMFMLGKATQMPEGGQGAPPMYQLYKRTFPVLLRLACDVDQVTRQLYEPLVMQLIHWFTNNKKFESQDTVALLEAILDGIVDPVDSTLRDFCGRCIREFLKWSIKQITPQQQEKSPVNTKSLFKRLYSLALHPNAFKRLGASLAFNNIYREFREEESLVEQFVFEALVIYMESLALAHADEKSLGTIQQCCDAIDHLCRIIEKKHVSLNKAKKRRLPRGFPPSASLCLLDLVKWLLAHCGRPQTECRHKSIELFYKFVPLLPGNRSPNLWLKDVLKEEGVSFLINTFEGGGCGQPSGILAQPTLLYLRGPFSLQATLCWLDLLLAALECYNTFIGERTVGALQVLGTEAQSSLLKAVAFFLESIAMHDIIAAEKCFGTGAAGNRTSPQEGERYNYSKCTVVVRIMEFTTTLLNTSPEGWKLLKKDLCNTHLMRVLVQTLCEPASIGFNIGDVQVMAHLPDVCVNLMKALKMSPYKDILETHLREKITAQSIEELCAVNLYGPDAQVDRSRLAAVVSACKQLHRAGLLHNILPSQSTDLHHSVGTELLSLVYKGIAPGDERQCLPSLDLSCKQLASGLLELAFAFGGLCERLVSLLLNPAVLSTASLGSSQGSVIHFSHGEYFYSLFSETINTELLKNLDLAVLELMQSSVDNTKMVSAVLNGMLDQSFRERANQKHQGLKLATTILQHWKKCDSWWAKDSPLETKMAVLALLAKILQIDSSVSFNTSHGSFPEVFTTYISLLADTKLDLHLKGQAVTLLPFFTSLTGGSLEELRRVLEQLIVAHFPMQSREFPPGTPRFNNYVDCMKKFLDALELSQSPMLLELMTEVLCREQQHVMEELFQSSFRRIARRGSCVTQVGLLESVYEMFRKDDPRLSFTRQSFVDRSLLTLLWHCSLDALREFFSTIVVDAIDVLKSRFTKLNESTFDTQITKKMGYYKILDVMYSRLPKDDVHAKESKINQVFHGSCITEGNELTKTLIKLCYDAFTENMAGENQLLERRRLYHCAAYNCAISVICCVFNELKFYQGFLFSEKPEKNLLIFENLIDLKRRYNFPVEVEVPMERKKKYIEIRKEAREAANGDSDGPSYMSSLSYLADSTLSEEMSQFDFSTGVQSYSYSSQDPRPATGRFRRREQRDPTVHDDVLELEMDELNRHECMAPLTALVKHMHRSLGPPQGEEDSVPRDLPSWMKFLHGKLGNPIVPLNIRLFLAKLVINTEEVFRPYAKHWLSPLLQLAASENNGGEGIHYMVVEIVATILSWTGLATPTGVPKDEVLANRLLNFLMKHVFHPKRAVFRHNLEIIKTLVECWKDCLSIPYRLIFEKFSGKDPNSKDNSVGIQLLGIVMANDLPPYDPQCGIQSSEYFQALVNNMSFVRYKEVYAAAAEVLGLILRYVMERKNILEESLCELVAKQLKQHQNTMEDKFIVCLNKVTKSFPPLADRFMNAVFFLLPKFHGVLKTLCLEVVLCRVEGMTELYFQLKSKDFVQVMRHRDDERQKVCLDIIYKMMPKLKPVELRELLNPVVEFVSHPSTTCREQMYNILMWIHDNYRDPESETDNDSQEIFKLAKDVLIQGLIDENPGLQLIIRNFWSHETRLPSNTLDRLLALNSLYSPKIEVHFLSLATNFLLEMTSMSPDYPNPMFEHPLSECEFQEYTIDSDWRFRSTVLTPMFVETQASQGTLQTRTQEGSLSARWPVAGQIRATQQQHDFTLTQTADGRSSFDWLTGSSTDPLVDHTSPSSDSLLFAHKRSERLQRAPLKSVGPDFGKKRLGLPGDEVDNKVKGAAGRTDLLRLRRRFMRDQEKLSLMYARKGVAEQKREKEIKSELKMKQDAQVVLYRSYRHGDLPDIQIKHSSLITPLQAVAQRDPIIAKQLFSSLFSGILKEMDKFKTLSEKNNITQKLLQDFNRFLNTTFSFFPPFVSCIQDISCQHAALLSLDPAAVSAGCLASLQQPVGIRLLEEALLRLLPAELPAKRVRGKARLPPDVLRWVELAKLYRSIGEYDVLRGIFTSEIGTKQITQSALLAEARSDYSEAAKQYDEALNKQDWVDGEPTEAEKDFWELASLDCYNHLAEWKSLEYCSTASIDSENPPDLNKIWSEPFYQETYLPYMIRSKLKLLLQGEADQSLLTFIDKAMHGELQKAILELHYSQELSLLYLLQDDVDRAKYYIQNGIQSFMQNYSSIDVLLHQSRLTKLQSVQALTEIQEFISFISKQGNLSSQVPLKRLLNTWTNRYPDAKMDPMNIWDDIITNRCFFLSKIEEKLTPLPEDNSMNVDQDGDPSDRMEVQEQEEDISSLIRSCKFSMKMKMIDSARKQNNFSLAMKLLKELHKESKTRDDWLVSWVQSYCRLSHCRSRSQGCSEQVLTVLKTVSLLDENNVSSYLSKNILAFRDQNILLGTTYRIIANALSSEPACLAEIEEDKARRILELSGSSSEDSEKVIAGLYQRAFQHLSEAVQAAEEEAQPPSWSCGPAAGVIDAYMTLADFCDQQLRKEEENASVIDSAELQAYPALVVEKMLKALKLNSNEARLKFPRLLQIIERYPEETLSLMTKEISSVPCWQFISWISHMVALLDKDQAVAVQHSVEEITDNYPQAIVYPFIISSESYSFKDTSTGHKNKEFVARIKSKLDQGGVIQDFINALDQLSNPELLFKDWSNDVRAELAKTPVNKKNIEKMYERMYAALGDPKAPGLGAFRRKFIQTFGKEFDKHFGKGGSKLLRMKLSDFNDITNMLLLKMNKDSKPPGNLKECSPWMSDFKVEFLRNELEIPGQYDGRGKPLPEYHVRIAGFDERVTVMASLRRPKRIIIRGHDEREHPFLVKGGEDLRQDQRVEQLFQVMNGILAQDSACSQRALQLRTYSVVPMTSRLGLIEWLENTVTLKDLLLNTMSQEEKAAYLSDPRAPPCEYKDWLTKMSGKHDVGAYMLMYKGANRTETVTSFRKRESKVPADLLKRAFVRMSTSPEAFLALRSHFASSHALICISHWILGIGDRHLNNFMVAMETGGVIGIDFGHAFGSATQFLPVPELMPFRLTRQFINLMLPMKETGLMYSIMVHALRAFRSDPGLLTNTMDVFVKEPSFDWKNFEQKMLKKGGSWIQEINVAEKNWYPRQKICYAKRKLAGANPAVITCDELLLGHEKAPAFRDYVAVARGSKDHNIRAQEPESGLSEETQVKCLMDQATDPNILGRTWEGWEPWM
# UniProt O75569: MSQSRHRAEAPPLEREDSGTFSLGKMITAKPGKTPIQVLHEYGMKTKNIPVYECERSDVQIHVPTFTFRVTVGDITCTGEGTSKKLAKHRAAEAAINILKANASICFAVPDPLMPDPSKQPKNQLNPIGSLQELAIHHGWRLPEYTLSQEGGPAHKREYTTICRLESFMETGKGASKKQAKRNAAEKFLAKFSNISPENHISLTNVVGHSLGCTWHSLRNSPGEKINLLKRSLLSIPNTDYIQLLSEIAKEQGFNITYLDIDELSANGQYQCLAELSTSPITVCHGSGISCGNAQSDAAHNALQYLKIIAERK
# UniProt Q8NAV1: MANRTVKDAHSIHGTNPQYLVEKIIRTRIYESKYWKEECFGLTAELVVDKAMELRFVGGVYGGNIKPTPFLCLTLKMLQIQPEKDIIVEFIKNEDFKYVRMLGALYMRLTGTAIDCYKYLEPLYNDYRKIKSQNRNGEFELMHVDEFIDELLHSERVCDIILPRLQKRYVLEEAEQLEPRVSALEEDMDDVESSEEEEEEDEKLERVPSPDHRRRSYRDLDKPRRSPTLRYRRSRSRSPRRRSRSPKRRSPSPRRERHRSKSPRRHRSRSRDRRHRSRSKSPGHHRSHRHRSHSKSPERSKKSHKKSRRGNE
# UniProt Q99873, whole entry, looked up: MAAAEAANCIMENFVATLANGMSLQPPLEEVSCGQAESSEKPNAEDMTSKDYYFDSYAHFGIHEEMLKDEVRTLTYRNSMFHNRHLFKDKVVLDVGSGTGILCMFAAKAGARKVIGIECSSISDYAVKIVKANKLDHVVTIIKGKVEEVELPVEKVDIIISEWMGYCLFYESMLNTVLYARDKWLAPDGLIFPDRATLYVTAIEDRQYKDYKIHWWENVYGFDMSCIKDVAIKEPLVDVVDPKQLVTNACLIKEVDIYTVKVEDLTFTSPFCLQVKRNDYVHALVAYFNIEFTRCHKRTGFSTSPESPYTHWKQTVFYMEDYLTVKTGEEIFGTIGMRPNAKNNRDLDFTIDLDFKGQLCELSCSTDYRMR
# UniProt P05771, whole entry, looked up: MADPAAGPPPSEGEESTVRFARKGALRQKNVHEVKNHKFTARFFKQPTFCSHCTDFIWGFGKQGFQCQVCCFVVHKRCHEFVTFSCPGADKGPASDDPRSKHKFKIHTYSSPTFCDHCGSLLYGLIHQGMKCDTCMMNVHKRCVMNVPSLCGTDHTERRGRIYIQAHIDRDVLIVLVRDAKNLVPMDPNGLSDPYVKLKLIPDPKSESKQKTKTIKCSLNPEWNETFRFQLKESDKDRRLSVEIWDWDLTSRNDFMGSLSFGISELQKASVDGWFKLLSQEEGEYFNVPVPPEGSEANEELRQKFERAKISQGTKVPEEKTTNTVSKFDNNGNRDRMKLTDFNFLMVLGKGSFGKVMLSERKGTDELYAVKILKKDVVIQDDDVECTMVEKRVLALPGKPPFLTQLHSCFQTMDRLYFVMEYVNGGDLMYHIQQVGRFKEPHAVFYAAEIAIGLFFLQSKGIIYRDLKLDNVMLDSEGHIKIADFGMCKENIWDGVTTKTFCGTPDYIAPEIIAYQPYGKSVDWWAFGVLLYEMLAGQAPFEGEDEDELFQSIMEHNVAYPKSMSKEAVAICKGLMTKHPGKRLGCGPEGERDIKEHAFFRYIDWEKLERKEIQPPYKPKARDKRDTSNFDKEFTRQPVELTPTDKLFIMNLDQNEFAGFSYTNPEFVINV
# UniProt Q9UMS4: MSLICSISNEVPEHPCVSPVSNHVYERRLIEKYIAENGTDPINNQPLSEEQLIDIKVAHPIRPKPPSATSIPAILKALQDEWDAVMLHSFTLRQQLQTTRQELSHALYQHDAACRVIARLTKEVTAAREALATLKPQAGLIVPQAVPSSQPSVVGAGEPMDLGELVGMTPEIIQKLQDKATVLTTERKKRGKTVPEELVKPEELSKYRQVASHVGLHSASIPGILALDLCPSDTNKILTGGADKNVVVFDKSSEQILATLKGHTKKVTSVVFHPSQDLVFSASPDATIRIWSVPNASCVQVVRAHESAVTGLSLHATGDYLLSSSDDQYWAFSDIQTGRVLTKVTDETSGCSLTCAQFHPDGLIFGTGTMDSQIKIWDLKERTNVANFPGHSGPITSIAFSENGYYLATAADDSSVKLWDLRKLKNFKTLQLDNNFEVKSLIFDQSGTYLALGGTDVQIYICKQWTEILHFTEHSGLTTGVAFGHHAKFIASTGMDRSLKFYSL
# This is one part of the list.
# Compound: CC1Cc2ccccc2N1C(=O)C1CCCN(C1)C(=O)CCl (mixture of isomers) [TRIM25 ligand 11 (diastereomer mixture)]
# Assay: probe-labelled cysteine peptide fold change vs DMSO (competition) (log2 fold change); higher = less target engagement (more negative = stronger competition)
# Settings: 10 µM; THP-1; incubation time: 4 h
# 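Also: competitive chemoproteomic profiling in live THP-1 cells with an iodoacetamide desthiobiotin (IA-DTB) probe, comparing probe-labelled peptide intensities in compound-treated cells against DMSO-treated controls.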
row,Target,probe-labelled cysteine peptide fold change
1,PRKDC_P78527_373_GYGLFAGPCK (UniProt P78527),0.0188
2,PRKRA_O75569_77_VTVGDITCTGEGTSKK (UniProt O75569),-0.151
3,PRPF38A_Q8NAV1_158_VCDIILPR (UniProt Q8NAV1),0.0425
4,PRPF4_O43172_399_CIMFLEGHLK (UniProt O43172),-0.0298
5,PRMT1_Q99873_272_VEDLTFTSPFCLQVK (UniProt Q99873),0.262
6,PRKDC_P78527_630_DFSAFINLVEFCR (UniProt P78527),0.0072
7,PRRC2C_Q9Y520_620_QESENSCNKEEEPVFTR (UniProt Q9Y520),0.0183
8,PRKCB_P05771_217_CSLNPEWNETFR (UniProt P05771),-0.00427
9,PRKRA_O75569_54_NIPVYECER (UniProt O75569),-0.0869
10,PRKDC_P78527_2342_KNILEESLCELVAK (UniProt P78527),-0.115
11,PRMT1_Q99873_360+364_GQLCELSCSTDYR (UniProt Q99873),0.0885
12,PRKCB_P05771_143+151_CVMNVPSLCGTDHTER (UniProt P05771),0.196
13,PRKDC_P78527_3187_CFFLSK (UniProt P78527),-0.115
14,PREX1_Q8TCU6_558_LVDWLLAQGDCQTR (UniProt Q8TCU6),0.214
15,PRKDC_P78527_1742_FNNYVDCMK (UniProt P78527),0.122
16,PREX1_Q8TCU6_52_LCVLNEILGTER (UniProt Q8TCU6),0.189
17,PRPF19_Q9UMS4_16_SLICSISNEVPEHPCVSPVSNHVYER (UniProt Q9UMS4),-0.133

# Reprinted at random: 2 entries already listed
row,Target,probe-labelled cysteine peptide fold change
2,PRKRA_O75569_77_VTVGDITCTGEGTSKK (UniProt O75569),-0.151
14,PREX1_Q8TCU6_558_LVDWLLAQGDCQTR (UniProt Q8TCU6),0.214
